The values below come from paper PMC7852611.

This experiment concerns the target Flag-labeled β-catenin 12 armadillo repeats (12 × arm). Nature of the experiment: co-IP; Flag-labeled β-catenin fragments expressed in mGFP-AQP1/HEK-293T or HEK-293T cells; lysates; western blot. On the technique in general: Immunoblotting shows a protein as a band on a membrane.

No constants are given. Whether binding was seen depends on the method and setting. In cells and extracts the contact can be indirect. Binding calls can cover weak binding; strength is not graded here. Sequences can lack the tags named with a protein.

B1: mGFP-AQP1 (protein, UniProt P29972 1-269)
chain: MASEFKKKLFWRAVVAEFLATTLFVFISIGSALGFKYPVGNNQTAVQDNVKVSLAFGLSIATLAQSVGHISGAHLNPAVTLGLLLSCQISIFRALMYIIAQCVGAIVATAILSGITSSLTGNSLGRNDLADGVNSGQGLGIEIIGTLQLVLCVLATTDRRRRDLGGSAPLAIGLSVALGHLLAIDYTGCGINPARSFGSAVITHNFSNHWIFWVGPFIGGALAVLIYDFILAPRSSDLTDRVKVWTSGQVEEYDLDADDINSRVEMKPK
On to B1, for which the binding result is listed as “binds”.
